Results taken from patent US7709509B2, “Oxadiazolones and derivatives thereof as peroxisome proliferator-activated receptor (PPAR) delta agonists” (Sanofi-Aventis Deutschland GmbH, priority 2004, dated 2010).
Some of these results come from one statement about several compounds together.

Target: T1, human PPARalpha (Homo sapiens, UniProt Q07869)
T1 construct: human PPARalpha receptor (amino acids S167-Y468); expressed in transfected cells; host or cells: HEK cells, stably transfected (pcDNA3, CMV promoter)
T1 sequence (Q07869 167-468): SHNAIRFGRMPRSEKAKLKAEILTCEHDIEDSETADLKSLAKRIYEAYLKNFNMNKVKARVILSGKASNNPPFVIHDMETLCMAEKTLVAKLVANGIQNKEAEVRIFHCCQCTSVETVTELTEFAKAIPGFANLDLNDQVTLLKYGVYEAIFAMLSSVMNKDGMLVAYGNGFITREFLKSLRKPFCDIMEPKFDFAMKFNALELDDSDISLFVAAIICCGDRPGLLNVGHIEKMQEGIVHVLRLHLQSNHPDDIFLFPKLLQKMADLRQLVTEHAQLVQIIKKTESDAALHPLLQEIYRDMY
Assay: Cellular PPARalpha assay (HEK PPARalpha reporter cell line, luciferase)
Format: cell-based
Settings: units nM and μM inside the value; read-out: PPARalpha EC50 values (range over examples)
Experimental: Determination of EC50 Values of PPAR Agonists in the Cellular PPARalpha Assay
The potency of substances which bind to human PPARalpha and activate it in an agonistic manner is analyzed using a stably transfected HEK cell line (HEK=human embryo kidney) which is referred to here as PPARalpha reporter cell line. It contains two genetic elements, a luciferase reporter element (pdeltaM-GAL4-Luc-Zeo) and a PPARalpha fusion protein (GR-GAL4-humanPPARalpha-LBD) which mediates expression of the luciferase reporter element depending on a PPARalpha ligand. The stably and constitutively expressed fusion protein GR-GAL4-humanPPARalpha-LBD binds in the cell nucleus of the PPARalpha reporter cell line via the GAL4 protein portion to the GAL4 DNA binding motifs 5′-upstream of the luciferase reporter element which is stably integrated in the genome of the cell line. There is only weak expression of the luciferase reporter gene in the absence of a PPARalpha ligand if fatty acid-depleted fetal calf serum (cs-FCS) is used in the assay. PPARalpha ligands bind and activate the PPARalpha fusion protein and thereby stimulate the expression of the luciferase reporter gene. The luciferase which is formed can be detected by means of chemiluminescence via an appropriate substrate.
The PPARalpha reporter cell line was prepared in two stages. Firstly, the luciferase reporter element was constructed and stably transfected into HEK cells. For this purpose, five binding sites of the yeast transcription factor GAL4 (Accession # AF264724) were cloned in 5′-upstream of a 68 bp-long minimal MMTV promoter (Accession # V01175). The minimal MMTV promoter section contains a CCAAT box and a TATA element in order to enable efficient transcription by RNA polymerase II. The cloning and sequencing of the GAL4-MMTV construct took place in analogy to the description of Sambrook J. et al. (Molecular cloning, Cold Spring Harbor Laboratory Press, 1989). Then the complete Photinus pyralis gene (Accession # M15077) was cloned in 3′-downstream of the GAL4-MMTV element. After sequencing, the luciferase reporter element consisting of five GAL4 binding sites, MMTV promoter and luciferase gene was recloned into a plasmid which confers zeocin resistance in order to obtain the plasmid pdeltaM-GAL4-Luc-Zeo. This vector was transfected into HEK cells in accordance with the statements in Ausubel, F. M. et al. (Current protocols in molecular biology, Vol. 1-3, John Wiley & Sons, Inc., 1995).
In a second step, the PPARalpha fusion protein (GR-GAL4-humanPPARalpha-LBD was introduced into the stable cell clone described. For this purpose, initially the cDNA coding for the N-terminal 76 amino acids of the glucocorticoid receptor (Accession # P04150) was linked to the cDNA section coding for amino acids 1-147 of the yeast transcription factor GAL4 (Accession # P04386). The cDNA of the ligand-binding domain of the human PPARalpha receptor (amino acids S167-Y468; Accession # S74349) was cloned in at the 3′-end of this GR-GAL4 construct. The fusion construct prepared in this way (GR-GAL4-humanPPARalpha-LBD) was recloned into the plasmid pcDNA3 (Invitrogen) in order to enable constitutive expression therein by the cytomegalovirus promoter. This plasmid was linearized with a restriction endonuclease and stably transfected into the previously described cell clone containing the luciferase reporter element. The finished PPARalpha reporter cell line which contains a luciferase reporter element and constitutively expresses the PPARalpha fusion protein (GR-GAL4-human PPARalpha-LBD) was isolated by selection with zeocin (0.5 mg/ml) and G418 (0.5 mg/ml).
The activity of PPARalpha agonists is determined in a 3-day assay, which is described below: […]

SMILES | EC50 [nM]
Cc1nc(-c2ccc(C(F)(F)F)cc2)sc1COc1ccc(-c2noc(=O)[nH]2)c(F)c1 [Example 1, 3-{2-Fluoro-4-[4-methyl-2-(4-trifluoromethyl-phenyl)-thiazole-5-ylmethoxy]-phenyl}-4H-[1,2,4]oxadiazole-5-one] | ≥ 100
Cc1nc(-c2ccc(C(F)(F)F)cc2)sc1COc1ccc(-c2noc(=O)[nH]2)cc1 [Example 2, 3-{4-[4-Methyl-2-(4-trifluoromethyl-phenyl)-thiazole-5-ylmethoxy]-phenyl}-4H-[1,2,4]oxadiazole-5-one] | ≥ 100
COc1cc(-c2noc(=O)[nH]2)ccc1OCc1sc(-c2ccc(C(F)(F)F)cc2)nc1C [Example 3, 3-{3-Methoxy-4-[4-methyl-2-(4-trifluoromethyl-phenyl)-thiazole-5-ylmethoxy]-phenyl}-4H-[1,2,4]oxadiazole-5-one] | ≥ 100
Cc1nc(-c2ccc(C(F)(F)F)cc2)sc1COc1ccc(-c2noc(=O)[nH]2)c(Cl)c1 [Example 4, 3-{2-Chloro-4-[4-methyl-2-(4-trifluoromethyl-phenyl)-thiazole-5-ylmethoxy]-phenyl}-4H-[1,2,4]oxadiazole-5-one] | ≥ 100
Cc1nc(-c2ccc(C(F)(F)F)cc2)sc1CSc1ccc(-c2noc(=O)[nH]2)cc1 [Example 5, 3-{4-[4-Methyl-2-(4-trifluoromethyl-phenyl)-thiazole-5-ylmethylsulfanyl]-phenyl}-4H-[1,2,4]oxadiazole-5-one] | ≥ 100
CCCCc1nc(-c2ccc(C(F)(F)F)cc2)sc1COc1ccc(-c2noc(=O)[nH]2)c(Cl)c1 [Example 6, 3-{4-[4-Butyl-2-(4-trifluoromethyl-phenyl)-thiazole-5-ylmethoxy]-2-chloro-phenyl}-4H-[1,2,4]oxadiazole-5-one] | ≥ 100
CCCCc1nc(-c2ccc(S(F)(F)(F)(F)F)cc2)sc1COc1ccc(-c2noc(=O)[nH]2)c(Cl)c1 [Example 7, 3-{4-[4-Butyl-2-(4-pentafluorosulfanyl-phenyl)-thiazole-5-ylmethoxy]-2-chloro-phenyl}-4H-[1,2,4]oxadiazole-5-one] | ≥ 100
Cc1nc(-c2ccc(S(F)(F)(F)(F)F)cc2)sc1COc1ccc(-c2noc(=O)[nH]2)c(Cl)c1 [Example 8, 3-{2-Chloro-4-[4-methyl-2-(4-pentafluorosulfanyl-phenyl)-thiazole-5-ylmethoxy]-phenyl}-4H-[1,2,4]oxadiazole-5-one] | ≥ 100
CCCCc1nc(-c2ccc(C(F)(F)F)cc2)sc1CCOc1ccc(-c2noc(=O)[nH]2)c(Cl)c1 [Example 9, 3-(4-{2-[4-Butyl-2-(4-trifluoromethyl-phenyl)-thiazol-5-yl]-ethoxy}-2-chloro-phenyl)-4H-[1,2,4]oxadiazol-5-one] | ≥ 100
CCCCc1nc(-c2ccc(C(F)(F)F)cc2)sc1COc1ccc(Cc2noc(=O)[nH]2)c(Cl)c1 [Example 10, 3-{4-[4-Butyl-2-(4-trifluoromethyl-phenyl)-thiazol-5-ylmethoxy]-2-chloro-benzyl}-4H-[1,2,4]oxadiazol-5-one] | ≥ 100
COc1cc(OCc2sc(-c3ccc(C(F)(F)F)cc3)nc2C)ccc1-c1noc(=O)[nH]1 [Example 11, 3-{2-Methoxy-4-[4-methyl-2-(4-trifluoromethyl-phenyl)-thiazol-5-ylmethoxy]-phenyl}-4H-[1,2,4]oxadiazol-5-one] | ≥ 100
CCCCc1nc(-c2ccc(C(F)(F)F)cc2)sc1COc1ccc(-c2noc(=O)[nH]2)c(F)c1 [Example 12, 3-{4-[4-Butyl-2-(4-trifluoromethyl-phenyl)-thiazol-5-ylmethoxy]-2-fluoro-phenyl}-4H-[1,2,4]oxadiazol-5-one] | ≥ 100
CCCCc1nc(-c2ccc(C(F)(F)F)cc2)sc1COc1cc(F)c(-c2noc(=O)[nH]2)c(F)c1 [Example 13, 3-{4-[4-Butyl-2-(4-trifluoromethyl-phenyl)-thiazol-5-ylmethoxy]-2,6-difluoro-phenyl}-4H-[1,2,4]oxadiazol-5-one] | ≥ 100
CCCCc1nc(-c2ccc(C(F)(F)F)cc2)sc1CSc1ccc(-c2noc(=O)[nH]2)cc1 [Example 14, 3-{4-[4-Butyl-2-(4-trifluoromethyl-phenyl)-thiazol-5-ylmethylsulfanyl]-phenyl}-4H-[1,2,4]oxadiazol-5-one] | ≥ 100
CCCCc1nc(-c2ccc(C(F)(F)F)cc2)sc1COc1ccc(-c2noc(=O)[nH]2)c(C(F)(F)F)c1 [Example 15, 3-{4-[4-Butyl-2-(4-trifluoromethyl-phenyl)-thiazol-5-ylmethoxy]-2-trifluoromethyl-phenyl}-4H-[1,2,4]oxadiazol-5-one] | ≥ 100
CCCCc1nc(-c2ccc(C(F)(F)F)cc2)sc1COc1ccc(-c2noc(=O)[nH]2)c(C)c1 [Example 16, 3-{4-[4-Butyl-2-(4-trifluoromethyl-phenyl)-thiazol-5-ylmethoxy]-2-methyl-phenyl}-4H-[1,2,4]oxadiazol-5-one] | ≥ 100
CCCCc1nc(-c2ccc(C(F)(F)F)cc2)sc1COc1ccc(-c2noc(=O)[nH]2)c(Br)c1 [Example 17, 3-{2-Bromo-4-[4-butyl-2-(4-trifluoromethyl-phenyl)-thiazol-5-ylmethoxy]-phenyl}-4H-[1,2,4]oxadiazol-5-one] | ≥ 100
CCCCc1nc(-c2ccc(C(F)(F)F)cc2)sc1COc1ccc(-c2noc(=O)[nH]2)c(OC)c1 [Example 18, 3-{4-[4-Butyl-2-(4-trifluoromethyl-phenyl)-thiazol-5-ylmethoxy]-2-methoxy-phenyl}-4H-[1,2,4]oxadiazol-5-one] | ≥ 100
C=CCCc1nc(-c2ccc(C(F)(F)F)cc2)sc1COc1ccc(-c2noc(=O)[nH]2)c(Cl)c1 [Example 19, 3-{4-[4-But-3-enyl-2-(4-trifluoromethyl-phenyl)-thiazol-5-ylmethoxy]-2-chloro-phenyl}-4H-[1,2,4]oxadiazol-5-one] | ≥ 100
O=c1[nH]c(-c2ccc(OCc3sc(-c4ccc(C(F)(F)F)cc4)nc3CCCCO)cc2Cl)no1 [Example 20, 3-{2-Chloro-4-[4-(4-hydroxy-butyl)-2-(4-trifluoromethyl-phenyl)-thiazol-5-ylmethoxy]-phenyl}-4H-[1,2,4]oxadiazol-5-one] | ≥ 100
O=c1[nH]c(-c2ccc(OCc3sc(-c4ccc(C(F)(F)F)cc4)nc3CCC(O)CO)cc2Cl)no1 (centres unmarked) [Example 21, 3-{2-Chloro-4-[4-(3,4-dihydroxy-butyl)-2-(4-trifluoromethyl-phenyl)-thiazol-5-ylmethoxy]-phenyl}-4H-[1,2,4]oxadiazol-5-one] | ≥ 100
CCCCc1nc(-c2ccc(C(F)(F)F)cc2)sc1COc1ccc(-c2noc(=O)[nH]2)c(C#N)c1 [Example 22, 5-[4-Butyl-2-(4-trifluoromethyl-phenyl)-thiazol-5-ylmethoxy]-2-(5-oxo-4,5-dihydro-[1,2,4]oxadiazol-3-yl)-benzonitrile] | ≥ 100
CCCCc1nc(-c2ccc(C(F)(F)F)cc2)sc1COc1ccc(-c2noc(=O)[nH]2)c(SC)c1 [Example 23, 3-{4-[4-Butyl-2-(4-trifluoromethyl-phenyl)-thiazol-5-ylmethoxy]-2-methylsulfanyl-phenyl}-4H-[1,2,4]oxadiazol-5-one] | ≥ 100
